# Data as given in PubChem BioAssay AID1159578 (Peter MacCallum Cancer Centre, 2015).
# Test: 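siRNA pools altering how lymphatic endothelial cells close a scratch wound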 (primary screen)
# Cells: human lymphatic endothelial cells
# Reagent: siRNA pool against human genes, 40 nM
# Time to read-out: 48 h after transfection
# Detection: 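Cells stained with dye and imaged after a scratch; covered wound area and nuclei counted, duplicates averaged, migration set against mock wells and turned into a robust z-score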
# Reading the numbers: migration robust z-score: higher = faster migration into the scratch; migration relative to mock: higher = more scratch area covered than mock; nuclei per well: higher = more cells in the well
# Active means: 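Migration changed when robust z exceeds 2 or falls below -2 and mean nuclei number is at least 3300; otherwise not called changed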
# Meaning of the calls: active = migration changed; inactive = no migration change, or too few cells
# The whole screen tested about 18,000 reagents; below is a random part of them. About 1,030 of all reagents (5.7%) were called active. 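Inactive calls also include pools with fewer than 3300 nuclei, whose migration was not assessed.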 Raw values are not corrected between plates. A number with no mark means an inactive call.
gene knocked down,migration robust z-score,migration class with cell-count check,migration relative to mock,"nuclei per well, duplicate mean"
CCND1,-0.88,under 3300 nuclei; migration not judged,0.64,2425
CLDN9,-1.12,under 3300 nuclei; migration not judged,0.6,3182
MTRF1,0.54,migration z between -2 and 2; enough cells,0.91,3933
SLC18A1,-0.08,migration z between -2 and 2; enough cells,0.79,6785
ACMSD,1.14,migration z between -2 and 2; enough cells,1.02,6337
MFSD1,2.2 (active),migration z above 2; enough cells,1.46,6524
ASNS,0.39,migration z between -2 and 2; enough cells,0.88,6004
HRG,2.25 (active),migration z above 2; enough cells,1.47,5194
IL33R,1.12,migration z between -2 and 2; enough cells,1.02,6364
GYPE,0.57,migration z between -2 and 2; enough cells,1.04,6048
HLA-DRB4,2.9 (active),migration z above 2; enough cells,1.64,7232
CCDC112,1.5,migration z between -2 and 2; enough cells,1.27,5344
ANKH,-0.34,migration z between -2 and 2; enough cells,0.74,6099
DCANP1,-0.61,migration z between -2 and 2; enough cells,0.73,5002
TWNK,0.21,migration z between -2 and 2; enough cells,0.84,6016
NUDT4,1.35,migration z between -2 and 2; enough cells,1.06,5940
SLC7A7,1.3,migration z between -2 and 2; enough cells,1.06,5566
ACTN4,-1.36,migration z between -2 and 2; enough cells,0.53,5202
CTRC,-0.24,migration z between -2 and 2; enough cells,0.76,5400
CLASRP,-1.44,migration z between -2 and 2; enough cells,0.51,4828
NRXN1,-0.45,migration z between -2 and 2; enough cells,0.77,5012
DKC1,-1.79,migration z between -2 and 2; enough cells,0.46,3770
CD53,-1.98,migration z between -2 and 2; enough cells,0.37,6209

Not a retest: entries from further up.
gene knocked down,migration robust z-score,migration class with cell-count check,migration relative to mock,"nuclei per well, duplicate mean"
ACMSD,1.14,migration z between -2 and 2; enough cells,1.02,6337
MFSD1,2.2 (active),migration z above 2; enough cells,1.46,6524
